Values from PubChem BioAssay AID1508588 (Peter MacCallum Cancer Centre, 2020)
In all, the deposit lists about 18,000 reagents; this is a part drawn at random. Of all reagents, 790 (4.4%) were called active. 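Calls rest on a combination of fold-change classes in drug and vehicle arms, not all shown here.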 Unmarked entries are inactive. The numbers tell different reagents against one gene apart.

Screen: 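Genome-wide search for knock-downs that heighten vemurafenib action in melanoma cells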 (primary screen)
Cells: human WM266.4 melanoma cells (BRAF V600 mutant)
Knock-down reagent: siRNA pool against human genes, 40 nM
Time to read-out: 96 h from transfection to read-out
Conditions: vemurafenib 300 nM (about IC25), added 48 h after transfection, for 48 h; comparison arm got DMSO vehicle only
Detection: 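Ratios to non-targeting siRNA for cell gain, counted as DAPI nuclei after minus before drug and averaged over two replicates, and for absorbance-read medium lactate per cell; both binned into fold-change classes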
Reading the numbers: cell gain with vemurafenib: higher = more cell gain than with non-targeting siRNA; lactate per cell with vemurafenib: higher = more lactate made per cell
Rule for the call: 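Enhancement is called by pairing each knock-down's vehicle-arm and drug-arm fold-change classes for viability or glycolysis; which class combinations qualify is not given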
Meaning of the calls: active = enhances vemurafenib effect; inactive = no enhancement seen

{"Gene":"SP110","reagent no.":1,"cell gain with vemurafenib":0.61,"lactate per cell with vemurafenib":1.23}
{"Gene":"RAB14","reagent no.":1,"cell gain with vemurafenib":1.05,"lactate per cell with vemurafenib":0.56}
{"Gene":"FSTL4","reagent no.":1,"cell gain with vemurafenib":0.62,"lactate per cell with vemurafenib":0.9}
{"Gene":"RASGEF1A","reagent no.":1,"cell gain with vemurafenib":0.44,"lactate per cell with vemurafenib":1.42}
{"Gene":"TMEM243","reagent no.":1,"cell gain with vemurafenib":1.04,"lactate per cell with vemurafenib":0.6}
{"Gene":"XAGE5","reagent no.":1,"cell gain with vemurafenib":0.3,"lactate per cell with vemurafenib":1.34}
{"Gene":"KLF7","reagent no.":1,"cell gain with vemurafenib":0.33,"lactate per cell with vemurafenib":1.39}
{"Gene":"COQ2","reagent no.":1,"cell gain with vemurafenib":0.48,"lactate per cell with vemurafenib":0.82}
{"Gene":"BTG4","reagent no.":1,"cell gain with vemurafenib":0.26,"lactate per cell with vemurafenib":1.86}
{"Gene":"GCM2","reagent no.":1,"cell gain with vemurafenib":0.47,"lactate per cell with vemurafenib":1.33}
{"Gene":"PBX2","reagent no.":1,"cell gain with vemurafenib":0.81,"lactate per cell with vemurafenib":1.18}
{"Gene":"LINC02910","reagent no.":1,"cell gain with vemurafenib":0.68,"lactate per cell with vemurafenib":0.79}
{"Gene":"FOXD4L3","reagent no.":1,"cell gain with vemurafenib":0.77,"lactate per cell with vemurafenib":1.05}
{"Gene":"FOXD4L3","reagent no.":2,"cell gain with vemurafenib":0.71,"lactate per cell with vemurafenib":0.66}
{"Gene":"AMIGO2","reagent no.":1,"cell gain with vemurafenib":-0.01,"lactate per cell with vemurafenib":0.3}
{"Gene":"NSF","reagent no.":1,"cell gain with vemurafenib":0.77,"lactate per cell with vemurafenib":0.89}
{"Gene":"ECM1","reagent no.":1,"cell gain with vemurafenib":0.69,"lactate per cell with vemurafenib":0.57}
{"Gene":"SERTAD3","reagent no.":1,"cell gain with vemurafenib":0.38,"lactate per cell with vemurafenib":1.1}
{"Gene":"SLC35C1","reagent no.":1,"cell gain with vemurafenib":0.65,"lactate per cell with vemurafenib":0.8}
{"Gene":"SFRP1","reagent no.":1,"cell gain with vemurafenib":0.5,"lactate per cell with vemurafenib":1.44}

The list goes on, starting with the last 3 of the part before.
{"Gene":"SERTAD3","reagent no.":1,"cell gain with vemurafenib":0.38,"lactate per cell with vemurafenib":1.1}
{"Gene":"SLC35C1","reagent no.":1,"cell gain with vemurafenib":0.65,"lactate per cell with vemurafenib":0.8}
{"Gene":"SFRP1","reagent no.":1,"cell gain with vemurafenib":0.5,"lactate per cell with vemurafenib":1.44}
{"Gene":"CNIH1","reagent no.":1,"cell gain with vemurafenib":-0.09,"lactate per cell with vemurafenib":1.84}
{"Gene":"SAMHD1","reagent no.":1,"cell gain with vemurafenib":0.7,"lactate per cell with vemurafenib":0.69}
{"Gene":"SMG7","reagent no.":1,"cell gain with vemurafenib":"0.23 (active)","lactate per cell with vemurafenib":0.38}
{"Gene":"EPHX1","reagent no.":1,"cell gain with vemurafenib":0.57,"lactate per cell with vemurafenib":0.88}
{"Gene":"MAPRE1","reagent no.":1,"cell gain with vemurafenib":1.2,"lactate per cell with vemurafenib":1.17}
{"Gene":"DDHD1","reagent no.":1,"cell gain with vemurafenib":1.01,"lactate per cell with vemurafenib":0.66}
{"Gene":"OLR1","reagent no.":1,"cell gain with vemurafenib":0.74,"lactate per cell with vemurafenib":0.38}
{"Gene":"VSIG4","reagent no.":1,"cell gain with vemurafenib":0.69,"lactate per cell with vemurafenib":0.69}
{"Gene":"GTF2A2","reagent no.":1,"cell gain with vemurafenib":1.39,"lactate per cell with vemurafenib":0.52}
{"Gene":"B4GALNT1","reagent no.":1,"cell gain with vemurafenib":0.46,"lactate per cell with vemurafenib":0.72}
{"Gene":"SPACA4","reagent no.":1,"cell gain with vemurafenib":0.31,"lactate per cell with vemurafenib":1.9}
{"Gene":"HSPA12B","reagent no.":1,"cell gain with vemurafenib":0.5,"lactate per cell with vemurafenib":1.15}
{"Gene":"STAMBPL1","reagent no.":1,"cell gain with vemurafenib":0.3,"lactate per cell with vemurafenib":2.25}
{"Gene":"VPS54","reagent no.":1,"cell gain with vemurafenib":0.55,"lactate per cell with vemurafenib":0.52}
{"Gene":"OR5B17","reagent no.":1,"cell gain with vemurafenib":0.79,"lactate per cell with vemurafenib":0.67}
{"Gene":"GCSAML","reagent no.":1,"cell gain with vemurafenib":0.82,"lactate per cell with vemurafenib":0.7}
{"Gene":"CIMIP2A","reagent no.":1,"cell gain with vemurafenib":0.23,"lactate per cell with vemurafenib":1.61}
{"Gene":"GSTZ1","reagent no.":1,"cell gain with vemurafenib":0.94,"lactate per cell with vemurafenib":0.59}
{"Gene":"TMEM59L","reagent no.":1,"cell gain with vemurafenib":0.23,"lactate per cell with vemurafenib":0.56}
{"Gene":"TGIF2","reagent no.":1,"cell gain with vemurafenib":0.72,"lactate per cell with vemurafenib":0.88}
